Experimental data taken from paper PMC5006124.

Molecular target: Flag-tagged HCV non-structural protein NS5B (hepatitis C virus)
Test: co-IP; HEK293T co-transfected with HA-tagged TRIM14 or truncations and Flag-tagged HCV proteins, 24 h; lysis in 20 mM Tris pH 8.0, 150 mM NaCl, 1% TritonX-100, 1 mM EDTA; immunoprecipitated using anti-Flag, 4 °C, 6-8 hours; western blot

B1: HA-tagged TRIM14 (tripartite motif 14) (protein, UniProt Q14142 1-442)
chain: MAGAATGSRTPGRSELVEGCGWRCPEHGDRVAELFCRRCRRCVCALCPVLGAHRGHPVGLALEAAVHVQKLSQECLKQLAIKKQQHIDNITQIEDATEKLKANAESSKTWLKGKFTELRLLLDEEEALAKKFIDKNTQLTLQVYREQADSCREQLDIMNDLSNRVWSISQEPDPVQRLQAYTATEQEMQQQMSLGELCHPVPLSFEPVKSFFKGLVEAVESTLQTPLDIRLKESINCQLSDPSSTKPGTLLKTSPSPERSLLLKYARTPTLDPDTMHARLRLSADRLTVRCGLLGSLGPVPVLRFDALWQVLARDCFATGRHYWEVDVQEAGAGWWVGAAYASLRRRGASAAARLGCNRQSWCLKRYDLEYWAFHDGQRSRLRPRDDLDRLGVFLDYEAGVLAFYDVTGGMSHLHTFRATFQEPLYPALRLWEGAISIPRLP
- binding: binds

Results are given in words; binding and its absence hold for the method and conditions named. In cells and extracts the contact can be indirect. Binding can be weak; no strength is given. Tags and fused reporters may be left off the sequences shown.
